Test [1] addresses GST-EB1 (UniProt Q15691). The experiment in a line: pull-down; GST-tagged protein expression lysate (E. coli BL21) added to cell lysate (MRC-5, DLD-1 or transfected HeLaM) in 50 mM Tris pH 7.4, 150 mM NaCl, 1% Triton X-100; 4 °C 2 h, then glutathione sepharose 1 h; immunoblot (anti-APC or anti-GFP). (A western blot detects proteins with antibodies after separation by electrophoresis.)

Sequences of proteins named here, by UniProt entry; tags and fusion partners are left off. A change or cut given only in a name is not applied to a line headed by its entry. A line that says so, or that is headed by a name, gives the form on record, which may keep a tag or linker. Residues count along the entry.
UniProt Q15691: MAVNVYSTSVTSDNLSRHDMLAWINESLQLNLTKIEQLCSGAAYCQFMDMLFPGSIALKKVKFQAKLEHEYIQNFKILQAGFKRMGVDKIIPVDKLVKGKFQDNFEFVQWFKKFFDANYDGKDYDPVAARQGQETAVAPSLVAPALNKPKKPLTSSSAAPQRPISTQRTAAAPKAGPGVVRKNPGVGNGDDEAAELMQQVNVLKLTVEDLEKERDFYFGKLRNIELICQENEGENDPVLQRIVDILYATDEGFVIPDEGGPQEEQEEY
truncated APC endogenously expressed in the DLD-1 colon cancer cell line (P25054, residues 1-1417): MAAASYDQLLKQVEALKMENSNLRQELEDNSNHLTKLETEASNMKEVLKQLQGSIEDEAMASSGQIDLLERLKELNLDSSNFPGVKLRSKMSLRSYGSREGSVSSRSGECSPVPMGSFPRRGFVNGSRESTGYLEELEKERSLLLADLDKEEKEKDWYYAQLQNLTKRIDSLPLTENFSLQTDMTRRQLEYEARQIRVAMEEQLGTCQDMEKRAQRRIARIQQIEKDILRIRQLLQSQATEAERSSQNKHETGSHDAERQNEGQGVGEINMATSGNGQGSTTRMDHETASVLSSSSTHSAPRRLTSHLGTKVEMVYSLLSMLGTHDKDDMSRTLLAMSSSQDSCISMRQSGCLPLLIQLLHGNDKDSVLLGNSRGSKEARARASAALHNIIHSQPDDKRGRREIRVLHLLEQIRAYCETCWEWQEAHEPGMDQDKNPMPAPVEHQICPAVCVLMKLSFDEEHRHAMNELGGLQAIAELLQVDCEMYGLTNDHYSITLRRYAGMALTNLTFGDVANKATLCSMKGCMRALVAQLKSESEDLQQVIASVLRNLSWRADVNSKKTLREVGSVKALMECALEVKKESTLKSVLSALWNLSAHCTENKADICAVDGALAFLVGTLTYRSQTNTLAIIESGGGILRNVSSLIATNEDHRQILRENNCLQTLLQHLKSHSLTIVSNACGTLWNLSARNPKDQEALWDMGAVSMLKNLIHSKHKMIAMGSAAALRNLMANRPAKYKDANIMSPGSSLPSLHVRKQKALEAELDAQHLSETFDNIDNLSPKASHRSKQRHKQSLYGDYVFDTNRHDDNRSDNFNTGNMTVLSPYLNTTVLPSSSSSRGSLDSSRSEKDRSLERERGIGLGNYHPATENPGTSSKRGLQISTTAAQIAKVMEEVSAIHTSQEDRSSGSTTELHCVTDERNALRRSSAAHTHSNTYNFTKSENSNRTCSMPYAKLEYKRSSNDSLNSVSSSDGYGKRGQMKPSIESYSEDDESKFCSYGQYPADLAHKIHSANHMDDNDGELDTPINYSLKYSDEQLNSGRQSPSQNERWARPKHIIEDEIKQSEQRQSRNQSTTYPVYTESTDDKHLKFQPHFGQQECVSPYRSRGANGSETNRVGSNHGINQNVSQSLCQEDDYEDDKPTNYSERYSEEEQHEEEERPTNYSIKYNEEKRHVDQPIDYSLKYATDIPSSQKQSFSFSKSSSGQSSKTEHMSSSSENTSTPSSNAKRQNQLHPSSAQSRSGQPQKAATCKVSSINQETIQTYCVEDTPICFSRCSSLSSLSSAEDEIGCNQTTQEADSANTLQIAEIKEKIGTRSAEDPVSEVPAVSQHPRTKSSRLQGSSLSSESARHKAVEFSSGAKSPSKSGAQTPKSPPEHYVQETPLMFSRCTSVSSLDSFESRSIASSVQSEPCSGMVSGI
GFP-APC-C (P25054, residues 2185-2843): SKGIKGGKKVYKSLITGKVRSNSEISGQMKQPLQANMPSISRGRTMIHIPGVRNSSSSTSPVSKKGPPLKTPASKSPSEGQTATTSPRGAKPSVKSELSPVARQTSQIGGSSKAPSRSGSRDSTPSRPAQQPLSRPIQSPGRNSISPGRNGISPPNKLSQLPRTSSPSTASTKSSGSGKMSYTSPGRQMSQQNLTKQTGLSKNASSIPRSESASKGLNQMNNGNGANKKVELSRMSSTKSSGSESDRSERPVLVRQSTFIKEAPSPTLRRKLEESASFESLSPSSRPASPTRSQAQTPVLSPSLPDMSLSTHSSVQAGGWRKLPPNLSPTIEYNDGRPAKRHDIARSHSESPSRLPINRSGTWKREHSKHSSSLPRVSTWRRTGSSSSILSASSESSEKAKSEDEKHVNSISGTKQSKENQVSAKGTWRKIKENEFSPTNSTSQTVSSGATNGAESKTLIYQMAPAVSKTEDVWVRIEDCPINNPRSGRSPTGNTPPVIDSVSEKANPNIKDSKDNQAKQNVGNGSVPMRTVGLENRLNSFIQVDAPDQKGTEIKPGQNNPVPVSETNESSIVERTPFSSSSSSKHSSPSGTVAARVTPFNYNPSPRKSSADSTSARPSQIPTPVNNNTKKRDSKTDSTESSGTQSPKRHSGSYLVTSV
GFP-APC-CΔK (P25054, form named): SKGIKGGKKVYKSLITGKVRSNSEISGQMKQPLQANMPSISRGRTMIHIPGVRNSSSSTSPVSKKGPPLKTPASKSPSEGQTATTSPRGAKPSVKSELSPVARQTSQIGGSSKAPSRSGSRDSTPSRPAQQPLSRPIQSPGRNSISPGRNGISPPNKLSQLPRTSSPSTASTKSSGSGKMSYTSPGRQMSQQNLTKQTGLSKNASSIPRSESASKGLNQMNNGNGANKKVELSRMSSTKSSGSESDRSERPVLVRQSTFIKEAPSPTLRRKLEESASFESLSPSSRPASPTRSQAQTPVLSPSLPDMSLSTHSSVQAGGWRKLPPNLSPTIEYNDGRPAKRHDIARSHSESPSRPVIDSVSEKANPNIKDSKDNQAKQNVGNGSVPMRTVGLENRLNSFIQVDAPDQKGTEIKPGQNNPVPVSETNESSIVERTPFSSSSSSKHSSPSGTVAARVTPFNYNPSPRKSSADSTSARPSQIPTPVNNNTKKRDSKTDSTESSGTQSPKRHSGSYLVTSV

Test [2] concerns the target GST-EB1 (UniProt Q15691). As to the kind of experiment: pull-down; purified GST-KIF5Bct or GST-EB1 incubated with lysate of HeLaM cells transfected with GFP-APC-C or GFP-APC-CΔK; immunoblot with anti-GFP; only the target purified.

The results in this text go back to paper PMC4895226.

These are yes or no findings as the source states them, for the method shown. In cells and extracts the contact can be indirect. Some binding calls cover weakened binding; strength is not graded here.

Turning to “GFP-APC-C (from UniProt P25054 2185-2843) (domain or fragment)”, the binding result in the test with GST-EB1 [1] is on record as “binds”. Consider “GFP-APC-CΔK (from UniProt P25054 2185-2843) (domain or fragment)”, for which the binding result with GST-EB1 [2] is listed as “binds”. For the substance “truncated APC endogenously expressed in the DLD-1 colon cancer cell line (from UniProt P25054 1-1417) (domain or fragment)”, the binding result in the test with GST-EB1 [1] is recorded as “no binding”.
